Data on 1 molecule can be found in PMC7693140.

By UniProt entry, the sequences of proteins in these tests, tags left out.
UniProt O15392: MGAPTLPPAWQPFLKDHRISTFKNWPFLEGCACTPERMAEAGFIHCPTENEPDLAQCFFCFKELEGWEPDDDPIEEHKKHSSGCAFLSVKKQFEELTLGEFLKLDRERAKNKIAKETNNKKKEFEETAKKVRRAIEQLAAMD

The target of this test is human Survivin expressed from pCMV-Survivin (human) (UniProt O15392). Kind of test: co-IP.

No constants are given. Whether binding was seen depends on the method and setting. Binding seen in cells or lysates may run through a third protein. Some binding calls cover weakened binding; strength is not graded here.

B1: JCPyV large T-Antigen expressed from pcDNA3.1/Zeo(+)/JCT in U87-MG cells (protein, UniProt P03072 1-688)
chain: MDKVLNREESMELMDLLGLDRSAWGNIPVMRKAYLKKCKELHPDKGGDEDKMKRMNFLYKKMEQGVKVAHQPDFGTWNSSEVPTYGTDEWESWWNTFNEKWDEDLFCHEEMFASDDENTGSQHSTPPKKKKKVEDPKDFPVDLHAFLSQAVFSNRTVASFAVYTTKEKAQILYKKLMEKYSVTFISRHGFGGHNILFFLTPHRHRVSAINNYCQKLCTFSFLICKGVNKEYLFYSALCRQPYAVVEESIQGGLKEHDFNPEEPEETKQVSWKLVTQYALETKCEDVFLLMGMYLDFQENPQQCKKCEKKDQPNHFNHHEKHYYNAQIFADSKNQKSICQQAVDTVAAKQRVDSIHMTREEMLVERFNFLLDKMDLIFGAHGNAVLEQYMAGVAWIHCLLPQMDTVIYDFLKCIVLNIPKKRYWLFKGPIDSGKTTLAAALLDLCGGKSLNVNMPLERLNFELGVGIDQFMVVFEDVKGTGAESRDLPSGHGISNLDCLRDYLDGSVKVNLERKHQNKRTQVFPPGIVTMNEYSVPRTLQARFVRQIDFRPKAYLRKSLSCSEYLLEKRILQSGMTLLLLLIWFRPVADFAAAIHERIVQWKERLDLEISMYTFSTMKANVGMGRPILDFPREEDSEAEDSGHGSSTESQSQCFSQVSEASGADTQENCTFHICKGFQCFKKPKTPPPK
As for B1, the binding result was “binds”.
